PubChem BioAssay AID602196 – INSERM | 2012
Shown is one part, drawn at random, of about 23,000 reagents tested. 455 of them (2%) were called active. 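Active includes both protection and sensitisation; some change values fall well beyond the stated -50 to +50 range.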 Unmarked entries are inactive. Reagents against one gene are numbered here. Further read-outs or replicates are left out here. The record does not give: the amount of reagent.

Test: 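Genes whose knock-down alters cisplatin killing of lung cancer cells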
Cell system: human A549 lung cancer cells
Knock-down reagent: siRNA pair against human genes
Timing: 48 h transfection before cisplatin; time from cisplatin to read-out not stated
Conditions: cisplatin at a dose killing half of control-siRNA cells; exact dose and duration not given
Read-out: 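Shift in cisplatin death relative to control siRNA, from -50 (all cells die) to +50 (no cells die); siRNAs harmful on their own scored 0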
Scale: two-siRNA summed score (-2 to +2): higher = both siRNAs protect from cisplatin killing; -2 means both sensitise
Rule for the call: 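siRNAs harmful alone (LDH or WST-1) get 0; others get +1 for less and -1 for more cisplatin killing; genes are active when the two siRNAs give the same sign, summing to ±2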
Meaning of the calls: active = both siRNAs shift cisplatin killing the same way; inactive = no consistent shift, or siRNA harmful alone

After knock-down of LOC389747 the results were two-siRNA summed score (-2 to +2) = 1. Knock-down of UPK3B gave: two-siRNA summed score (-2 to +2) = 0. CYP1B1-AS1 showed two-siRNA summed score (-2 to +2) = 0. Silencing of LOC440801 resulted in: two-siRNA summed score (-2 to +2) = 0. PBOV1 gave two-siRNA summed score (-2 to +2) = -1. OR5T2 showed two-siRNA summed score (-2 to +2) = 0.

Depletion of RAB13 gave: two-siRNA summed score (-2 to +2) = 0. LOC284158 showed two-siRNA summed score (-2 to +2) = 0. For HS3ST2, the values are two-siRNA summed score (-2 to +2) = 0. For OR10G9, the entry reads two-siRNA summed score (-2 to +2) = 0. For UBLCP1, the values are two-siRNA summed score (-2 to +2) = 0. For LOC440158, the entry reads two-siRNA summed score (-2 to +2) = 0.

Against CEP104, the values are two-siRNA summed score (-2 to +2) = -1. Depletion of DRD5 came out at: two-siRNA summed score (-2 to +2) = 0. Depletion of ARHGAP5 resulted in: two-siRNA summed score (-2 to +2) = 0. RTP2 scored two-siRNA summed score (-2 to +2) = -1.

Entries above whose target name starts with L or l (4):
LOC389747 — two-siRNA summed score (-2 to +2) = 1
LOC440801 — two-siRNA summed score (-2 to +2) = 0
LOC284158 — two-siRNA summed score (-2 to +2) = 0
LOC440158 — two-siRNA summed score (-2 to +2) = 0

More reagents:
With knock-down of TPX2, the record shows two-siRNA summed score (-2 to +2) = -1. With knock-down of TAS2R41, the screen gave two-siRNA summed score (-2 to +2) = 0. PRAM1 gave two-siRNA summed score (-2 to +2) = 0. SNX4 scored two-siRNA summed score (-2 to +2) = 0. Silencing of ZNF587 resulted in: two-siRNA summed score (-2 to +2) = 0. ANKRD26 gave two-siRNA summed score (-2 to +2) = 0.

After knock-down of LOC441866, the screen gave two-siRNA summed score (-2 to +2) = 0. LOC441035 (retired record) scored two-siRNA summed score (-2 to +2) = 0. LINC02028 gave two-siRNA summed score (-2 to +2) = 0. After knock-down of LOC441874, the record shows two-siRNA summed score (-2 to +2) = 0. For CDONP2 the deposit lists two-siRNA summed score (-2 to +2) = 1. LOC442368 showed two-siRNA summed score (-2 to +2) = 1.

Depletion of EBNA1BP2 resulted in: two-siRNA summed score (-2 to +2) = 1. RBM33 #1 showed two-siRNA summed score (-2 to +2) = 0. RBM33 #2 showed two-siRNA summed score (-2 to +2) = 0. Knock-down of LOC201484 came out at: two-siRNA summed score (-2 to +2) = 0. Knock-down of C12orf57 came out at: two-siRNA summed score (-2 to +2) = 0. Silencing of AQP11 came out at: two-siRNA summed score (-2 to +2) = 1.

For LOC440962, the values are two-siRNA summed score (-2 to +2) = 0. After knock-down of TRAF3IP2, the record shows two-siRNA summed score (-2 to +2) = 0. Against C6, the values are two-siRNA summed score (-2 to +2) = 1. FOXJ1 gave two-siRNA summed score (-2 to +2) = 0. Silencing of TCF25 came out at: two-siRNA summed score (-2 to +2) = 0. With knock-down of KIAA1833, the record shows two-siRNA summed score (-2 to +2) = 0.
